Source: publication PMC5154354
Results are given in words; binding and its absence hold for the method and conditions named. Binding seen in cells or lysates may run through a third protein. Here binding means that the protein was enriched with, or labelled near, the bait; the list need not be complete.

Amino acid sequences for entries named in this document (tags omitted). Residues count along the entry.
UniProt P10809, residues 27-573: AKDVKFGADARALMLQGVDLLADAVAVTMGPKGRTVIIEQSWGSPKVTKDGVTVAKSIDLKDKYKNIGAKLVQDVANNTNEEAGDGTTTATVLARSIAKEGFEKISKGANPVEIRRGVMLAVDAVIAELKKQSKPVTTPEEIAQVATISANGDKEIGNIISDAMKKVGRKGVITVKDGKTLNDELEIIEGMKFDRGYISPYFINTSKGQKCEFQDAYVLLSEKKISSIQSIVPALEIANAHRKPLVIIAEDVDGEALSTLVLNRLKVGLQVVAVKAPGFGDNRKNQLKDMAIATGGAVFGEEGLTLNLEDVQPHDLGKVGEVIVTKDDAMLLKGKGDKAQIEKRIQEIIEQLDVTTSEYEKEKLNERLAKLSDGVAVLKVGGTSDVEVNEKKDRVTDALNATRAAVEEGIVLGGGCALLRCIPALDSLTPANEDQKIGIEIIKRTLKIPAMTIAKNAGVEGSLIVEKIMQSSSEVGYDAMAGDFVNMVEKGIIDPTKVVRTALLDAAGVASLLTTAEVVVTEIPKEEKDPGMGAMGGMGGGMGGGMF

Molecular target: T1, Biotin-P17 (synthetic peptide P17, 39 residues, N-terminally biotinylated)
T1 sequence (peptide, biotin on the N-terminus): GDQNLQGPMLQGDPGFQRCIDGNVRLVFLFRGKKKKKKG
Test: affinity purification with mass spectrometry; biotin-P17 on streptavidin magnetic beads (about 75 ug P17 per pull-down); precleared cytoplasmic and nuclear protein extracts of TRAIL-treated (10 ng/ml, 24 h) Jurkat cells; binding buffer 0.5 M NaCl, 20 mM Tris-HCl, 1 mM EDTA, pH 7.5, on ice 4 h; SDS-PAGE, Coomassie, band excised, MALDI-FTICR MS; only the target purified

## heat shock protein 60 (HSP60) (from UniProt P10809 27-573)
  binding: binds
